Measurements published in patent publication US20200316087A1, “NOVEL COMBINATION THERAPY FOR ANXIETY DISORDERS, EPILEPSY, AND PAIN” (priority 2017, published 2020).

Key:
[1] = tested on: seizures in amygdala kindled rats; assay: Basolateral amygdala kindling; format: in vivo; conditions: MED producing motor impairment / MED producing efficacy
Protocol: Seizure kindling models evaluate effects of drugs on the sensitization of the nervous system to seizure induction. In this test, drugs were evaluated for their ability to impact seizure parameters in rats that were fully kindled by daily electrical stimulation of their amygdala. Valproic acid was used as a positive control. Experiments were conducted using the general procedures of Zwart et al. (J. Pharmacol. Exp. Ther., 2014, 351:124-133). A bipolar electrode for electrical stimulation and EEG recording was stereotaxically implanted into one hemisphere of the basolateral amygdala (AP −2.2, ML −4.8, DV −8.5 mm, relative to bregma) of male Wistar rats. After post-operative recovery, electrical kindling begins, where a subthreshold constant current (400 μA, 1 ms, monophasic square-wave pulses, 60 Hz for 1 sec) is given once a day Monday-Friday for about 4-6 weeks until a rat is fully kindled. A fully kindled rat has experienced 10 consecutive stage 5 seizures or 10 of its last 12 were stage 5 according to the Racine Scale.
Twelve fully kindled rats were assigned to this study, and eight rats were selected and randomized to initial compound treatment groups from baseline after discharge threshold (ADT), seizure severity score, and after discharge duration (ADD). […] On test day, rats were dosed 30 min prior to beginning stimulation. After the pre-treatment, rats were stimulated using an ascending staircase sequence beginning at 10 μA and increasing in log unit steps of 10, 16, 25, 40, 65, 100, 160, 250, and 400 μA. Animals were stimulated until they were assigned a Seizure Severity Score for a visually observably seizure or they reached the 400 μA threshold limit. ADD was determined following testing. ADT was the current that induced a seizure; measurements were scale-adjusted to capture the stimulation scale change required to observe a seizure from the previous baseline to the ADT scored on test day. […] The average scale adjusted ADT was approximately 0.63 μA in vehicle treated rats.
Racine score of behavioral response to stimulation: 0=no behavioral response; 1=immobility, staring and/or facial clonus; 2=head nodding, jaw clonus, and/or tongue protrusion; 3=unilateral forelimb clonus; 4=bilateral forelimb clonus and/or rearing; 5=bilateral forelimb clonus with rearing and loss of balance.
After-Discharge Duration (ADD) is the duration of the first after-discharge.
ADT, ADD, and severity scores were analyzed by ANOVA. Seizure severity data was also analyzed by the nonparametric Skillings-Mack test, a generalization of the Friedman test for one-way repeated measures designs. Posthoc tests when reported were either by Dunnett's method (seizure severity) or using Wilcoxon sign rank tests (ADT and ADD). Valproic acid, used as a positive control was not used in ANOVA calculations.

PTZ-induced clonus = assay: Pentylenetetrazole (PTZ, 35 mg/kg s.c.)-induced clonic convulsions; format: in vivo, rats; conditions: MED producing motor impairment / MED producing efficacy
Protocol: After the inverted screen test, the rats were dosed with pentylenetetrazole (PTZ)(35 mg/kg, s.c.) in a volume of 1 ml/kg and placed in an observation cage (40.6×20.3×15.2 cm) with a floor containing […] of wood chip bedding material. PTZ dose was determined to be ˜EC97 for producing clonic convulsions.

PTZ seizure threshold = assay: Pentylenetetrazole (PTZ, i.v.)-induced seizure threshold; format: in vivo, rats; conditions: MED producing motor impairment / MED producing efficacy
Protocol: Male […] Sprague-Dawley rats (Indianapolis, Ind.) were randomly assigned to treatment groups and dosed with vehicle (vehicle=1% carboxymethyl cellulose) with diazepam (0.1, 0.3, or 1 mg/kg) or test compound (3, 10, 30, or 60 mg/kg) 30 minutes prior to testing. Rats were placed in a restrainer and a winged infusion needle was inserted into the lateral tail vein. Intravenous infusion with 10 mg/ml PTZ at a rate of 0.5 ml/min was initiated until a clonic convulsion occurred, and the time to clonic convulsion was recorded in sec or a maximum of 4 min was recorded. Following infusion, rats are euthanized. The dose of PTZ required to elicit a clonic convulsion was calculated using the infusion rate, concentration of PTZ, time to clonic convulsion, and animal weight.

[2] = Unbound plasma and brain concentrations after i.p. dosing; format: in vivo, rats; conditions: unbound drug concentrations at ED50 motor impairment vs ED50 efficacy
Text: (Table 4). Using these unbound drug concentrations, the PI based on drug levels in plasma was 3 and that based upon brain drug levels was 3.8.

| SMILES | Protective index (PI), After-Discharge Duration [1] | Protective index (PI), After-Discharge Threshold [1] | Protective index (PI), Seizure Severity [1] | Protective index (PI), PTZ Clonus (PTZ-induced clonus) | Protective index (PI), PTZ Threshold (PTZ seizure threshold) | PI based on drug levels in plasma [2] | PI based upon brain drug levels [2] |
| --- | --- | --- | --- | --- | --- | --- | --- |
| CN1C(=O)CN=C(c2ccccc2)c2cc(Cl)ccc21 [Diazepam, diazepam, reference compound] | <1 | 1 | 1 | 1 | 10 |  |  |
| C#Cc1ccc2c(c1)C(c1ccccn1)=NCc1c(-c3cnco3)ncn1-2 [KRM-II-81, 5-(8-ethynyl-6-(pyridin-2-yl)-4H-benzo[f]imidazo[1,5-a][1,4]diazepin-3-yl)oxazole] | 15 | 15 | 15 | 5 | 15 | 3 | 3.8 |
| C#Cc1ccc2c(c1)C(c1ccccc1)=NCc1c(-c3cnco3)ncn1-2 [KRM-II-82, 5-(8-ethynyl-6-phenyl-4H-benzo[f]imidazo[1,5-a][1,4]diazepin-3-yl)oxazole] | <5 | 15 | 15 | 15 | 15 |  |  |
| C#Cc1ccc2c(c1)C(c1ccccn1)=NCc1c(-c3nc(CC)no3)ncn1-2 [MP-III-080, 3-ethyl-5-(8-ethynyl-6-(pyridin-2-yl)-4H-benzo[f]imidazo[1,5-a][1,4]diazepin-3-yl)-1,2,4-oxadiazole] |  |  |  | >3 |  |  |  |
